According to article PMC8884905, “RECON syndrome is a genome instability disorder caused by mutations in the DNA helicase RECQL1” (The Journal of Clinical Investigation, 2022):
Results are given in words; binding and its absence hold for the method and conditions named. Binding seen in cells or lysates may run through a third protein. Some entries that bind do so weakly or less than the wild type.

Protein sequences, listed by entry. Tags and fused reporters are not part of them. Lines headed by an entry give the natural chain unless they say otherwise; changes in a name come on top.
UniProt P46063: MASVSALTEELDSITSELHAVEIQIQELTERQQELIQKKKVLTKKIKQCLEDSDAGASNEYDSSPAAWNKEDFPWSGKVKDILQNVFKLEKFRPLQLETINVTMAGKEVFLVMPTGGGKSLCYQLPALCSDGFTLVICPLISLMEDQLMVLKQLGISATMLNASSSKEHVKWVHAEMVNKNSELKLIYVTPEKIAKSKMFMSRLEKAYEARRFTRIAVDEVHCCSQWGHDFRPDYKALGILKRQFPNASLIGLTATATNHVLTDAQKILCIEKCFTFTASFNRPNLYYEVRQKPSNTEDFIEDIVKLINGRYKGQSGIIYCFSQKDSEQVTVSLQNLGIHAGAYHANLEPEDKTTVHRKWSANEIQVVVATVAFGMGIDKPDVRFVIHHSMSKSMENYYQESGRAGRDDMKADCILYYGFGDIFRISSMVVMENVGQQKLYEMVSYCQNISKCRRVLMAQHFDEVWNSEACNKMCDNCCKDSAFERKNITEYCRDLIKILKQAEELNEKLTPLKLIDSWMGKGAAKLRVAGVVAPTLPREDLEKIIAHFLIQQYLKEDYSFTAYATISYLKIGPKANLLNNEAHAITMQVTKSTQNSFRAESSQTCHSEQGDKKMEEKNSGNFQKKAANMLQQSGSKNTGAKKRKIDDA
UniProt P09874: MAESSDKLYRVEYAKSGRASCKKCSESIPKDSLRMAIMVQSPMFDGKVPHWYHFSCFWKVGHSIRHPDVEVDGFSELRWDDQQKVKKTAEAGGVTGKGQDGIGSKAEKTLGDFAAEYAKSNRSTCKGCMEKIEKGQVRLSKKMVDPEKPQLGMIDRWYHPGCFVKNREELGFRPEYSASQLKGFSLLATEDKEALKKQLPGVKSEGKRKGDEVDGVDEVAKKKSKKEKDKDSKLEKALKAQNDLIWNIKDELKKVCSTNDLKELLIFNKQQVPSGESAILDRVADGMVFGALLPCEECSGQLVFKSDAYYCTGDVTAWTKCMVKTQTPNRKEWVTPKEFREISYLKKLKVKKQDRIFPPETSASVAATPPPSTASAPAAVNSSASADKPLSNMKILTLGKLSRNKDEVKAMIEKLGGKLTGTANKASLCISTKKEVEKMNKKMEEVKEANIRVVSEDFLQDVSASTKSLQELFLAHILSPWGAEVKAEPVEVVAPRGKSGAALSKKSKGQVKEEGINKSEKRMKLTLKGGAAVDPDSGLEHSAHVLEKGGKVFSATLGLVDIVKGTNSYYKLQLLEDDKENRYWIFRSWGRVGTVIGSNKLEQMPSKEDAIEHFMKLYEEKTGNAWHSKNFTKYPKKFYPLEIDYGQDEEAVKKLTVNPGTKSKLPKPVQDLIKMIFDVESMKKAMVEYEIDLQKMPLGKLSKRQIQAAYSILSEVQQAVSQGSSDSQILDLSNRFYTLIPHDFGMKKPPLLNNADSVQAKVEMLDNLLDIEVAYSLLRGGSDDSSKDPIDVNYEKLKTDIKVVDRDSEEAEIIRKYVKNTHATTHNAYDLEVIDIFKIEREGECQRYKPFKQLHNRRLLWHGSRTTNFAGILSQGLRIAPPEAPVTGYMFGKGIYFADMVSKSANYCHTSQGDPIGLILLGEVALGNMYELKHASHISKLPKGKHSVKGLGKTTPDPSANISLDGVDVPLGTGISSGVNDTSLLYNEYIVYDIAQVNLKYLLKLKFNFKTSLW

Target: p.A459S mutant RECQL1 protein (in whole-cell extract) (human) (UniProt P46063)
Test: co-IP; anti-RECQL1 antibody (5 ug, A300-450A) or nonspecific IgG on protein A agarose beads, 5 mg whole-cell extract; lysis buffer without EDTA, with 250 units/mL benzonase and 1.5 mM MgCl2

binding: binds
Substance: poly-ADP-ribose polymerase 1 (from UniProt P09874 1-1014)
